# These are yes or no findings as the source states them, for the method shown. Binding can be weak; no strength is given. Where a sequence is shown, tags or fusion partners need not be part of it.
# By UniProt entry, the sequences of proteins in these tests, tags left out. Where a name states a change or a piece, a line headed by the entry shows the natural chain unless it says otherwise.
# UniProt P02459: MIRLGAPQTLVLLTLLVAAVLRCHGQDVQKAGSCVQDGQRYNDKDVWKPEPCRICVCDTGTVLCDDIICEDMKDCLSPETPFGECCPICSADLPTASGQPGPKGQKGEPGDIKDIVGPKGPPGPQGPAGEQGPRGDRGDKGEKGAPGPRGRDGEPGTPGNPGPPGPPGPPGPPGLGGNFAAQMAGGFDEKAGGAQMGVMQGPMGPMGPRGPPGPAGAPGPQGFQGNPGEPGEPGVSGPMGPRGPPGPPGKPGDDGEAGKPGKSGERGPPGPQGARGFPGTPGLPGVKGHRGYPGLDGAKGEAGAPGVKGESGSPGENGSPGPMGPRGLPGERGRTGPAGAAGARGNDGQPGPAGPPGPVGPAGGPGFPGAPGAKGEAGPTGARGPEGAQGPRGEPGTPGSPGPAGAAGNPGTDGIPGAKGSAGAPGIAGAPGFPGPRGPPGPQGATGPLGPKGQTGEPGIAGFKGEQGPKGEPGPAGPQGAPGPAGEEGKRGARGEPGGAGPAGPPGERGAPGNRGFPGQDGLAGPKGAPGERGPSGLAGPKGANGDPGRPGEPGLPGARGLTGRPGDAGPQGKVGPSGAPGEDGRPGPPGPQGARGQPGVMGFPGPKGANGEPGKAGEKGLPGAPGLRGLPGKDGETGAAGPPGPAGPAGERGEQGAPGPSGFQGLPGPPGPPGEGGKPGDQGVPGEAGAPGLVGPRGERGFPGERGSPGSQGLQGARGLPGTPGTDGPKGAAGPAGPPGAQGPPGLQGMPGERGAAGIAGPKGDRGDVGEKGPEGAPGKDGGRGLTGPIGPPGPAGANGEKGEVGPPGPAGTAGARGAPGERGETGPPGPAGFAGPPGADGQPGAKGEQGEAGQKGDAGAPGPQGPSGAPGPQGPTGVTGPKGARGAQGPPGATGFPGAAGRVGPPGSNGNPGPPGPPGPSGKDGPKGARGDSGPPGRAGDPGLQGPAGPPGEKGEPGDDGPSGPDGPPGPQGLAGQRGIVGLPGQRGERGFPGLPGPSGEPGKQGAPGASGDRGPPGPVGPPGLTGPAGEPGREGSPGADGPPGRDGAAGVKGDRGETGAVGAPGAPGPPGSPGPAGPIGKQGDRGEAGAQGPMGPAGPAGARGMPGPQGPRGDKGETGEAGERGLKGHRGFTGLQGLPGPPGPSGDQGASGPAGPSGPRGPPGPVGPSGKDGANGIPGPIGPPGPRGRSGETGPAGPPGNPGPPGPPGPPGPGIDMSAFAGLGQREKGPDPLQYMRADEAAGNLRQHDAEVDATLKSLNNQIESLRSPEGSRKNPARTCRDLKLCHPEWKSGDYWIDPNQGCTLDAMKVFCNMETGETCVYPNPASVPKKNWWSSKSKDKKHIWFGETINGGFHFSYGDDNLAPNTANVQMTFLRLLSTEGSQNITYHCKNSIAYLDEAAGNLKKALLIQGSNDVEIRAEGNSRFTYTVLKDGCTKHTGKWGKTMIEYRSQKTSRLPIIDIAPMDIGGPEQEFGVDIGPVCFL
# B1: Pma_f2 αI domain (sea lamprey integrin α subunit fragment Pma_f2), GST-fusion protein (domain or fragment, sea lamprey (Petromyzon marinus))
# chain: ADFQVTSTLTPAAQRCGLFMDIVIVLDGSNSIYPWQEVQNFVINIVKKFHIGPGQSRNGGGSTRFGVRTIHWHLGIARWACEGVQDVENIYSRPFVRTASALCQSLQVVRSEAFSPLFGAREGASKVMIVVTDGESHDSEDLTEAIAACERDNITRYAIAVLGYYKRKNIDPSNFISELKAISSEPEEKHFINVADEAALNDIVGTLGERIFSLEGTV
# notes: also called Pma αI domains; source: E. coli BL21 tuner (gene synthesized, in pGEX-2T), recombinant GST-fusion protein, "sufficiently pure"
# Target: bovine collagen II (bovine) (UniProt P02459)
# Experiment: solid-phase binding assay (Europium-labelled anti-GST antibody, time-resolved fluorescence); 96-well plates coated with collagen (16.4 µg/ml) or GFOGER-peptide (5 µg/ml) overnight at 4°C, blocked with BSA-Diluent II; GST-αI domain at a fixed 400 nM added for one hour at RT in PBS + 2 mM …; some samples on rat collagen I with 10 mM EDTA in the binding step; both purified
binder,measurement,value
B1,binding,binds

# — article PMC4237329, “Early Chordate Origin of the Vertebrate Integrin αI Domains” (PLoS ONE, 2014)
